Experimental findings from patent US20110250195A1 are described below.

The chains behind the UniProt entries cited, without tags or fusion partners. Where a name states a change or a piece, a line headed by the entry shows the natural chain unless it says otherwise.
UniProt Q9H293: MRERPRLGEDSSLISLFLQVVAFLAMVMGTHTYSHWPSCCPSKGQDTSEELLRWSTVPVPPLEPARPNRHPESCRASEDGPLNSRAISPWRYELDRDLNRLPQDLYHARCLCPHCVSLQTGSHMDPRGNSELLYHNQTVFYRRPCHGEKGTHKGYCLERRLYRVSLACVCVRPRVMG

Where a chain is given by its changes, count along the chain named. No constants are given. Whether binding was seen depends on the method and setting. A result given as binding can be weak or reduced; the word gives no strength.

Assay [1] addresses human IL-25 (R&D Systems) (human) (UniProt Q9H293). Nature of the assay: ELISA, plate coated with human IL-25.
For assay [2] the target is unchanged. Nature of the assay: ELISA on IL-25 after 10 minutes at various temperatures. For orientation: ELISA stands for enzyme-linked immunosorbent assay.
The target is the same in assay [3]. The assay is described as follows: ELISA, plate coated with human IL-25, HEK293T supernatants.

B1: humanised antibody RH2.5 (antibody, V domains shown)
VH: EVQLVESGAEVKKPGASVKVSCKASGYSFSGYTMNWVRQAPGQRLEWMGLINPYNGGTSYNQNFKGRVTLTRDTSASTAYLELNSLRSEDTGVYYCAREDYDGYLYFAMDYWGQGTLVTVSS
VL: DIQMTQSPSSLSASVGDRVTITCSASQGISNYLNWYQQKPGKVPKLLIYYTSSLHSGVPSRFSGSGSGTDFTLTISSLQPEDVATYYCQQYSKLPYTFGQGTKLEIK
For B1, the binding entry in assay [1] is recorded as “binds”.

B2: humanised antibody RH2.5_R71V (antibody, human IgG1, V domains shown)
VH: B1 VH with R72V
VL: B1 VL
As to B2, the binding entry in assay [2] and in assay [1] was “binds” throughout.

B3: humanised antibody RH2.5_S30T (antibody, human IgG1, V domains shown)
VH: B1 VH with S30T
VL: B1 VL
For B3, the binding entry in assay [2] and in assay [1] was “binds” each time.

B4: chimeric 2c3 antibody (2c3 light and heavy variable regions, human IgG1/kappa) (antibody, V domains shown)
VH: EVQLQQSGPELVKPGASMKISCKASGYSFTDYTMNWVKQSHGKNLEWIGLINPYNGGTSYNQNFKGKATLTVDKSSSTAYMELLSLTSEDSAVYYCAREGYDGYLYFAMDYWGQGTSVTVSS
VL: DIQMTQTTSSLSASLGDRVTISCSASQGISNYLNWYQQKADGTVELLIYYTSSLHSGVPSRFSGSGSGTDYSLTISNLEPEDIATYYCQQYSKLPYTFGGGTKLEIK
As to B4, the binding entry in assay [3] and in assay [2] was “binds” throughout.

B5: antibody of humanised light chain RKA with chimeric 2c3 heavy chain (antibody, V domains shown)
VH: B4 VH
VL: B1 VL
Consider B5, for which the binding entry in assay [3] is recorded as “binds”.
